These are yes or no findings as the source states them, for the method shown. In cells and extracts the contact can be indirect. Some results given as binding are weak or reduced against the parent protein; the word gives no strength.
How the values were obtained:
[1] = molecular target: SMAD1 (human (endogenous in 293T)) (UniProt Q15797); test: co-IP; endogenous proteins of 293T extracts; specific antibody and protein G agarose overnight at 4 °C; lysis buffer 150 mmol/L NaCl, 20 mmol/L HEPES, 1 mmol/L EDTA, 1 mmol/L EGTA, 10% glycerol, pH 7.4, 0.1% NP-40; seven washes; both directions; cells treated with 100 μg/mL COL2A1 or vehicle for 1 h, in some panels pretreated with 10 μg/mL ITGB1 blocking antibody, treated with BMP2 or COL2A1 silenced
[2] = molecular target: ITGB1-HA (UniProt P05556); test: pull-down; purified SMAD1-Flag incubated with ITGB1-HA linked to HA affinity agarose beads for 4 h at 4 °C, bead washing and immunoblotting; only the binder purified
[3] = molecular target: SMAD1-Flag (UniProt Q15797); test: co-IP; 293T cells transfected with SMAD1-Flag and ITGB1-HA; anti-Flag or anti-HA affinity agarose overnight at 4 °C; seven washes; immunoblot with anti-HA and anti-Flag

Sequences of proteins named here, by UniProt entry; tags and fusion partners are left off. A change or cut given only in a name is not applied to a line headed by its entry. Residues count along the entry.
UniProt Q15797: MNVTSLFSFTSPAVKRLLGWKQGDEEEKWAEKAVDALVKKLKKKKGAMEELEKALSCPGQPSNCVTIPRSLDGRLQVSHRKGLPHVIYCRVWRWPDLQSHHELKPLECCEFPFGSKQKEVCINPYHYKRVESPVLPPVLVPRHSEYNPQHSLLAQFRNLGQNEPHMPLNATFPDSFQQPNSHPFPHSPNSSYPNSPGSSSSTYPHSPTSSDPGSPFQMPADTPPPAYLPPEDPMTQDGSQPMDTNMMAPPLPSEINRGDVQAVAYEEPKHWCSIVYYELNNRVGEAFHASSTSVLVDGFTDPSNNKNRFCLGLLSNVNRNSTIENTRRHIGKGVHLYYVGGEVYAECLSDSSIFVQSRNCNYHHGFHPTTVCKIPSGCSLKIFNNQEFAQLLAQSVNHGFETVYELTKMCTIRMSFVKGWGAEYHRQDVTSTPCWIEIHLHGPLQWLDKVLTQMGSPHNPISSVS
UniProt P05556: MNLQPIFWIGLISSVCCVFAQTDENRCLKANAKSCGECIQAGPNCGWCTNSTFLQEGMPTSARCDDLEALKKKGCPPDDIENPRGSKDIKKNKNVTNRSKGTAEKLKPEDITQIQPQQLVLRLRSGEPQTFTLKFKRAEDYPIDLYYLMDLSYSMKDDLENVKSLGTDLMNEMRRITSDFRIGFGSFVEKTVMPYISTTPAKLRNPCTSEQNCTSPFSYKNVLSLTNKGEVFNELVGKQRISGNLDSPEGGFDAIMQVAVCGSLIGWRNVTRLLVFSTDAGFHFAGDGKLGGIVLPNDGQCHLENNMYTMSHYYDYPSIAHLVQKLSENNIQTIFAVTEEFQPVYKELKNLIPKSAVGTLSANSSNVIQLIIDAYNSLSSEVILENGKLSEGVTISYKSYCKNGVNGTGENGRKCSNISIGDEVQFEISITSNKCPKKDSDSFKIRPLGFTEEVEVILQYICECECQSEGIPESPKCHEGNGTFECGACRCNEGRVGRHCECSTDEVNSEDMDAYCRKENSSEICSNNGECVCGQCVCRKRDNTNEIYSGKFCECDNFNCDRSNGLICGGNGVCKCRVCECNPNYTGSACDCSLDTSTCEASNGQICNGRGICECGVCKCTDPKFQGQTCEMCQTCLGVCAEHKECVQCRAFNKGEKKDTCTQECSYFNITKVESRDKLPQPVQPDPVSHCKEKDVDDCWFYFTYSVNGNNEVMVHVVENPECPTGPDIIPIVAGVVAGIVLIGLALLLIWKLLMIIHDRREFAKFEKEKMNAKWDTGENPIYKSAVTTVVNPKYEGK
UniProt Q13485: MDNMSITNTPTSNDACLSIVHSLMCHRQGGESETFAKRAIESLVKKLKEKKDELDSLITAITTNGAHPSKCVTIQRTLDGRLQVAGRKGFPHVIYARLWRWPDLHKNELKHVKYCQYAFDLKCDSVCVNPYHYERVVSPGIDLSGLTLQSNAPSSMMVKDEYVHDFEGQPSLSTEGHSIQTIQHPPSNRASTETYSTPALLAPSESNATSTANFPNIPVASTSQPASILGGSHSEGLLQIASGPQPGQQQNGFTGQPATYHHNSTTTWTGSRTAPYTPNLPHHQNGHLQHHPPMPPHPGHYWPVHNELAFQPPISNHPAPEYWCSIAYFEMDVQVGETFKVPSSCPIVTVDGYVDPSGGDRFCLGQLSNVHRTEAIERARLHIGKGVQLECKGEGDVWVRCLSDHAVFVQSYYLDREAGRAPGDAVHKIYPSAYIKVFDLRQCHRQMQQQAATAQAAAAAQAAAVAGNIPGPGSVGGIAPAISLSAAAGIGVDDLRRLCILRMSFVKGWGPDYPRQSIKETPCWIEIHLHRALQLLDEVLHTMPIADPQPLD
UniProt O00238, residues 14-502: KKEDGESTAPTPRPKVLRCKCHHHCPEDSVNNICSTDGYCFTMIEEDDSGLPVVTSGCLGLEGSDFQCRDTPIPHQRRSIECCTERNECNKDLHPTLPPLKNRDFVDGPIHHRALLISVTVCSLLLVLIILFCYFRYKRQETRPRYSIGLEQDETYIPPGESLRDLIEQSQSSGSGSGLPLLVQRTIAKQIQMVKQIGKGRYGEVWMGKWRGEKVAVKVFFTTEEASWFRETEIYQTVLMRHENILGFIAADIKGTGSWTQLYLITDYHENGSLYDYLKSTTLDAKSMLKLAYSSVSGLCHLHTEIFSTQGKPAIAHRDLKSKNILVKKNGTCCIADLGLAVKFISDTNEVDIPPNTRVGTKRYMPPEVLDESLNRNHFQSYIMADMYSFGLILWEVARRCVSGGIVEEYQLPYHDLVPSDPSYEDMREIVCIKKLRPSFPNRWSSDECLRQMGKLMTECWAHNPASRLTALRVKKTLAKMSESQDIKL
UniProt P28482: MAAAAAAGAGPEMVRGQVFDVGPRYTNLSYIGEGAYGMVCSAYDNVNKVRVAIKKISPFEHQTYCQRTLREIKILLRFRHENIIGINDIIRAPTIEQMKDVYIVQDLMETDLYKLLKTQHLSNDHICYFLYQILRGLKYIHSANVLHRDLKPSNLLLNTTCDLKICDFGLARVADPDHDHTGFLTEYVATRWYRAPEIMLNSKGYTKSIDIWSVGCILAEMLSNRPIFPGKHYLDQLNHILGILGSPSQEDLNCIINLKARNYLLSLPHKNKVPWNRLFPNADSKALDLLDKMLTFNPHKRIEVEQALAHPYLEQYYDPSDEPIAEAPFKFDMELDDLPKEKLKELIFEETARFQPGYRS
UniProt P27361: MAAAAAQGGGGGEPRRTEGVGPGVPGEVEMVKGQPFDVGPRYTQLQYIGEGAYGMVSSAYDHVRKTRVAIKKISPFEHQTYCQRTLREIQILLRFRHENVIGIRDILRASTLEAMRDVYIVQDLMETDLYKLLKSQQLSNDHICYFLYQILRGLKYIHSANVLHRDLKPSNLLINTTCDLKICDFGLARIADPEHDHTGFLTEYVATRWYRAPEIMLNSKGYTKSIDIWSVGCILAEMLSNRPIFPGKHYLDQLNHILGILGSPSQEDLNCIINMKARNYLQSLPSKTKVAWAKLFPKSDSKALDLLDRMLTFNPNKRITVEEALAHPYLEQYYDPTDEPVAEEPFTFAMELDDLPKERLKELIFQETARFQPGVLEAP
UniProt P36894, residues 24-532: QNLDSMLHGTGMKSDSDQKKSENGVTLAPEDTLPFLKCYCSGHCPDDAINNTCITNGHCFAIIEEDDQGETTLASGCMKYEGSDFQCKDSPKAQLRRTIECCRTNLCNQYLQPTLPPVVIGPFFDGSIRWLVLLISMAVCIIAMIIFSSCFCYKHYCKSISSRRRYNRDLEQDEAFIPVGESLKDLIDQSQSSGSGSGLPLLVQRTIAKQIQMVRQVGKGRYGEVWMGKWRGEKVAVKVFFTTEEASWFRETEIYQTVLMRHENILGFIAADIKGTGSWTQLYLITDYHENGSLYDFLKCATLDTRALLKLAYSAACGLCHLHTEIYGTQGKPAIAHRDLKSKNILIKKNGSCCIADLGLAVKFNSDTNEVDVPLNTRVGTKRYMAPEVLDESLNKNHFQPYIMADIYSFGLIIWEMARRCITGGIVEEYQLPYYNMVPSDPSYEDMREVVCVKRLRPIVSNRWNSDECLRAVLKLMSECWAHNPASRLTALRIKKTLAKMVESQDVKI

binding [1]	Substance	further results
binds	SMAD4 (from UniProt Q13485 1-552)	
binds	BMPR1B (from UniProt O00238 14-502) (receptor)	
	SMAD1-Flag (from UniProt Q15797 1-465)	binding [2]: binds
binds	ERK2 (from UniProt P28482 1-360) (enzyme)	
binds	ERK1 (from UniProt P27361 1-379) (enzyme)	
	ITGB1-HA (from UniProt P05556 21-798) (receptor)	binding [3]: binds
binds	BMPR1A (from UniProt P36894 24-532) (receptor)	
binds	integrin β1 (ITGB1) (from UniProt P05556 21-798) (receptor)	

— paper PMC6403405
